The values that follow come from PMC11477393.

Sequences of proteins named here, by UniProt entry; tags and fusion partners are left off.
UniProt Q6PDM2: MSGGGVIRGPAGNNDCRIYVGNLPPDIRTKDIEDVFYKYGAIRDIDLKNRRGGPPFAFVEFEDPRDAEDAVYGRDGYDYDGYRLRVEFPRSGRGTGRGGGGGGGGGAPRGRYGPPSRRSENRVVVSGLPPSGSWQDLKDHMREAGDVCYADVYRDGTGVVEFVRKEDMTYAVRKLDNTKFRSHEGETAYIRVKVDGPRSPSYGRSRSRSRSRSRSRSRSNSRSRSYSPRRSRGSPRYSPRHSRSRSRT
UniProt P09405: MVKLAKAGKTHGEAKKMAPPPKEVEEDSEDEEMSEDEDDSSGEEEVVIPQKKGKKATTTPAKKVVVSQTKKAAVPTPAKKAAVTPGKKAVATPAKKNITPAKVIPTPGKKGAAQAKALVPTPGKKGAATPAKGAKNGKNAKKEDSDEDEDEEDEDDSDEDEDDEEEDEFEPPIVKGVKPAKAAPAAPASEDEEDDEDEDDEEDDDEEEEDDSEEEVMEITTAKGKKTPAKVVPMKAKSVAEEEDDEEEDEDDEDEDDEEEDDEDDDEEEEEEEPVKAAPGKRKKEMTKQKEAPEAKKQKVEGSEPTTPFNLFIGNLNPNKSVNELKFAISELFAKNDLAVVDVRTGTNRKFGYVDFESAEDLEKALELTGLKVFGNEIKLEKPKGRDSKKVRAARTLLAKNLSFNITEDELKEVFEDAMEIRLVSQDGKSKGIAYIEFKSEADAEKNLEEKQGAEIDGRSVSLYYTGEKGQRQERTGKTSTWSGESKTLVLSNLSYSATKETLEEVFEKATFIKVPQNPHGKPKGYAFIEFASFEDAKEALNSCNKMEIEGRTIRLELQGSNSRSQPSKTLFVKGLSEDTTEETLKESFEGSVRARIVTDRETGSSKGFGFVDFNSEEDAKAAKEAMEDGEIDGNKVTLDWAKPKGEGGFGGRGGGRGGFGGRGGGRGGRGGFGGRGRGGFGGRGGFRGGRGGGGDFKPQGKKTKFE

Results are given in words; binding and its absence hold for the method and conditions named. In cells and extracts the contact can be indirect. Some results given as binding are weak or reduced against the parent protein; the word gives no strength.

Experiment [1] concerns the target T1, Npac (mouse (endogenous in E14)) (UniProt Q922P9).
T1 sequence: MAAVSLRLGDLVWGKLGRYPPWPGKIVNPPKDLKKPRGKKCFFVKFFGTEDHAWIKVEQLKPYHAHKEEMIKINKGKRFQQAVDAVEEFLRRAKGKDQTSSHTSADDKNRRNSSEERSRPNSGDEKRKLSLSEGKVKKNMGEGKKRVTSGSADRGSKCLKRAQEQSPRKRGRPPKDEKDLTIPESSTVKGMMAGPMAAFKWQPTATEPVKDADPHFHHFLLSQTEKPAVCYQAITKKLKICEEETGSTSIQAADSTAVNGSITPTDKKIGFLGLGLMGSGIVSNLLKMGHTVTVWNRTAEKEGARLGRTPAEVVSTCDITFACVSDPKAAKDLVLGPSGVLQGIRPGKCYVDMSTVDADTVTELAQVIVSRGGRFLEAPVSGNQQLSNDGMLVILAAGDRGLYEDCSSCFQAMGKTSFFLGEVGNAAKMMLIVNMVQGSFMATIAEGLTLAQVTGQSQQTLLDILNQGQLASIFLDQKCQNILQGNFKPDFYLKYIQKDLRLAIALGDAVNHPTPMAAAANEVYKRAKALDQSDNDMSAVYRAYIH
Description: co-IP; E14 cell lysate in NP40 lysis buffer (50 mM Tris-HCl pH 8.0, 1 mM EDTA, 150 mM NaCl, 1% NP-40, 10% glycerol), antibody-coated Protein A agarose beads, 4 °C, five washes, immunoblot; anti-Npac and reverse IPs, control IgG. Background: Immunoblotting shows a protein as a band on a membrane.

Experiment [2] addresses T1, Npac (mouse (endogenous in E14)). The experiment in a line: co-IP; E14 nuclear extracts dialysed against BC50 buffer, with or without RNase A (100 μg/mL, 15 min), beads cross-linked with Npac antibody, rabbit IgG as control, Western blot.

For the substance “Serine/arginine-rich splicing factor 1 (from UniProt Q6PDM2 1-248)”, the binding result in experiment [1] and in experiment [2] was “binds” in each case.
Nucleolin (from UniProt P09405 1-707): the binding result in experiment [1] and in experiment [2] was “binds” each time.
